Source: PubChem BioAssay AID1259254 (NCATS, 2017)
Screen: 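Genome-wide screen for genes that prevent DNA re-replication in cancer cells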 (primary screen). Cells: human HCT116 colorectal cancer cells. Knock-down reagent: single siRNA against human genes. Timing: 3 days. Read-out: 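Imaged Hoechst DNA stain sorts each cell into a cycle phase by DNA amount; per plate, G2 fraction set to 0% for non-targeting and 100% for GMNN siRNA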. Scale: G2 robust z-score and G2 cells, % of GMNN control: higher = more G2 cells, more excess DNA replication. Rule for the call: 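Active siRNAs have a G2 robust z of 5 or more median absolute deviations over the median, which in these data means about 38% or higher of GMNN control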.
Shown is one part, drawn at random, of about 59,000 reagents tested. About 1,550 of them (2.6%) were called active. 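G2 share is only a proxy for re-replication; each gene was hit by three separate siRNAs, and active genes were retested.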 A number with no mark means an inactive call. Reagents against one gene are numbered here. Not all columns of the deposit are shown. No sequences are given here. Not stated in the record: the amount of reagent.

After knock-down of ARHGDIG (GeneID 398) #1 the results were G2 robust z-score 0.208; G2 cells, % of GMNN control 4.43.
Against ARHGDIG (GeneID 398) #2, the entry reads G2 robust z-score 1.47; G2 cells, % of GMNN control 13.3.
For ARHGDIG (GeneID 398) #3, the values are G2 robust z-score 0.856; G2 cells, % of GMNN control 8.99.
Against THSD1 (GeneID 55901) #1, the values are G2 robust z-score 2.06; G2 cells, % of GMNN control 17.5.
Depletion of THSD1 (GeneID 55901) #2 gave: G2 robust z-score -0.425; G2 cells, % of GMNN control -0.0233.
Against THSD1 (GeneID 55901) #3, the entry reads G2 robust z-score 0.602; G2 cells, % of GMNN control 7.21.
Against COPS8 (GeneID 10920) #1 the deposit lists G2 robust z-score 5.84 (active); G2 cells, % of GMNN control 44.1.
Against COPS8 (GeneID 10920) #2, the values are G2 robust z-score -0.505; G2 cells, % of GMNN control -0.589.
Silencing of COPS8 (GeneID 10920) #3 came out at: G2 robust z-score 0.0689; G2 cells, % of GMNN control 3.45.
Against AIMP1 (GeneID 9255) #1, the entry reads G2 robust z-score -0.681; G2 cells, % of GMNN control -1.82.
After knock-down of AIMP1 (GeneID 9255) #2 the results were G2 robust z-score 0.248; G2 cells, % of GMNN control 4.71.
AIMP1 (GeneID 9255) #3 gave G2 robust z-score 1.3; G2 cells, % of GMNN control 12.1.
ARHGEF10 (GeneID 9639) #1 showed G2 robust z-score -0.0436; G2 cells, % of GMNN control 2.66.
After knock-down of ARHGEF10 (GeneID 9639) #2 the results were G2 robust z-score -0.112; G2 cells, % of GMNN control 2.18.
For ARHGEF10 (GeneID 9639) #3 the deposit lists G2 robust z-score -0.717; G2 cells, % of GMNN control -2.08.
Knock-down of ADAMTS17 (GeneID 170691) #1 resulted in: G2 robust z-score 1.81; G2 cells, % of GMNN control 15.7.
Against ADAMTS17 (GeneID 170691) #2, the entry reads G2 robust z-score 1.31; G2 cells, % of GMNN control 12.2.
For ADAMTS17 (GeneID 170691) #3, the entry reads G2 robust z-score -1; G2 cells, % of GMNN control -4.07.
TRPM1 (GeneID 4308) #1 scored G2 robust z-score 5.99 (active); G2 cells, % of GMNN control 45.1.
Silencing of TRPM1 (GeneID 4308) #2 came out at: G2 robust z-score -1.48; G2 cells, % of GMNN control -7.44.
Knock-down of TRPM1 (GeneID 4308) #3 resulted in: G2 robust z-score -0.466; G2 cells, % of GMNN control -0.311.
ASPN (GeneID 54829) #1 gave G2 robust z-score 7.26 (active); G2 cells, % of GMNN control 54.
Against ASPN (GeneID 54829) #2 the deposit lists G2 robust z-score -0.237; G2 cells, % of GMNN control 1.3.
With knock-down of ASPN (GeneID 54829) #3, the record shows G2 robust z-score -1.06; G2 cells, % of GMNN control -4.5.

Part of the list above, limited to “G2 cells, % of GMNN control”.
TRPM1 (GeneID 4308) #3: -0.311
ASPN (GeneID 54829) #1: 54 (active)
ASPN (GeneID 54829) #2: 1.3
ASPN (GeneID 54829) #3: -4.5
